The source of these data is PubChem BioAssay AID1487 (National Center for Advancing Translational Sciences (NCATS), 2009).

The assay in a line: qHTS Assay for Modulators of Lamin A Splicing. The conditions noted are these: HeLa LMNA splicing GFP/RFP minigene ratio, 48 h. The method, boiled down: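 S3 HeLa stable clones carrying a lamin A-EGFP splicing minigene plus DsRed2 were seeded at 600 cells/well in Opti-MEM with 2% FBS, pin-dosed and incubated 48 h at 37°C. Acumen cytometry (488 nm) gave the GFP/RFP total-intensity ratio.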
Background: Quantitative high-throughput screening tests each substance at several concentrations.

The mark [1] stands for this setting: measured here: GFP splicing reporter channel.
Where [2] appears, read: measured here: RFP viability control channel.

SMILES strings stand for the structures. Several values for one entry are separate records, joined by “and”; a condition that tells them apart may be missing. Identical values can stand only once. Some of the results follow. Shown are side measurements of this screen, not its main read-out; they come without a call. The list favours compounds with an active or inconclusive main result. The note in brackets gives the kind of curve behind each potency; many fits are weak.

For the compound `O=c1c2ccccc2nc2ccc(NCc3ccco3)nn12`, the concentration at half-maximal activity (AC50) (usually the midpoint of the concentration-response curve, whichever way the signal moves) is 11.2 µM [falling, partial curve, poor fit] under setting [1] and 3.98 µM [falling, full curve, poor fit] under setting [2].

`CNc1ccc(Br)cc(C(=O)/C=C/c2ccc3c(c2)OCO3)c1=O`: the AC50 is, setting by setting: under setting [1], 25.1 µM [falling, single point]; under setting [2], 25.1 µM [falling, single point].

On to `Cc1nn(CC(=O)NCc2ccc(Cl)cc2)c(C)c1[N+](=O)[O-]`, for which the half-maximal activity concentration (AC50) reads like this: under setting [1], 20 µM [falling, partial curve, poor fit]; under setting [2], 7.94 µM [falling, partial curve].

Consider `O=C1C=CC(O)(c2cc(=O)c3c(O)cc(O)cc3o2)C=C1`, for which the AC50 under setting [2] is 31.6 µM [rising, single point].

As for `COc1cccc(NC(=O)CSc2nc3ccccc3c(=O)n2CCCC(=O)N2CCCC2)c1`, the concentration at half-maximal activity (AC50) under setting [1] was 20 µM [rising, partial curve, poor fit] and the AC50 under setting [2] is 15.8 µM [rising, partial curve].

As to `C/C(=N\NC(=O)COc1ccc(C(C)(C)C)cc1)c1cc2ccccc2o1`, the AC50 under setting [1] was 3.55 µM [rising, partial curve, poor fit] and the concentration at half-maximal activity (AC50) under setting [2] is 25.1 µM [rising, single point].

`COc1ccc(C(C(=O)NC2CCCCC2)N(C(=O)CCl)c2cccc(Cl)c2)cc1` (stereo not given): the AC50 under setting [1] is 14.1 µM [falling, partial curve] and the half-maximal activity concentration (AC50) under setting [2] was 25.1 µM [falling, single point].

In the case of `COc1ccc(CC(=O)Nc2ccc3c(c2)CCC3)cc1OC`, the AC50 was 6.31 µM [rising, full curve, poor fit] under setting [1] and 7.08 µM [rising, partial curve] under setting [2].

In the case of `CN(CC(=O)Nc1ccc(Cl)c(Cl)c1)C(=O)C12CC3CC(CC(C3)C1)C2`, the concentration at half-maximal activity (AC50) reads like this: under setting [1], 8.91 µM [rising, partial curve]; under setting [2], 14.1 µM [rising, partial curve].

Consider `COc1cc(C2CC(=O)c3c([nH]c(C(=O)OCCOC(C)C)c3C)C2)cc(OC)c1OC` (stereo not given), for which the concentration at half-maximal activity (AC50) reads like this: under setting [1], 3.55 µM [rising, full curve]; under setting [2], 6.31 µM [rising, full curve].

For the compound `O=C(C[n+]1ccc(Cc2ccccc2)cc1)Nc1ccc([N+](=O)[O-])cc1Cl`, under setting [1], the AC50 is 6.31 µM [falling, single point].

For `Cc1nnc2sc(-c3cccc4ccccc34)nn12`, the half-maximal activity concentration (AC50) under setting [1] is 10 µM [falling, partial curve, poor fit] and the AC50 under setting [2] was 11.2 µM [falling, partial curve, poor fit].

As for `O=C(NCCc1ccccc1)/C(=C/c1ccco1)c1ccccc1`, under setting [2], the concentration at half-maximal activity (AC50) was 12.6 µM [rising, partial curve, poor fit].

Consider `CN1CCc2c(cc(O)c(O)c2Cl)C(c2cccc(Cl)c2)C1` (stereo not given), for which the AC50 is 35.5 µM [falling, single point] under setting [1] and 11.2 µM [falling, single point] under setting [2].

With `N#C/C(=C\c1cccc([N+](=O)[O-])c1)c1nnc2n1CCCCC2`, the half-maximal activity concentration (AC50) under setting [2] is 12.6 µM [rising, partial curve].

As to `COc1ccc(Oc2c(Cl)cnn(-c3ccc(Cl)c(Cl)c3)c2=O)cc1`, the AC50 by setting is: under setting [1], 17.8 µM [falling, partial curve, poor fit]; under setting [2], 11.2 µM [falling, partial curve, poor fit].

Consider `CC(C)(C)CC(C)(C)NC(=O)Nc1cccc([N+](=O)[O-])c1`, for which the half-maximal activity concentration (AC50) under setting [1] is 0.0794 µM [rising, full curve, poor fit].

On to `Cc1ccccc1NC(=O)CCn1cnc2onc(-c3ccc(F)cc3)c2c1=O`, for which the AC50 under setting [1] is 1.12 µM [falling, partial curve] and the concentration at half-maximal activity (AC50) under setting [2] was 0.02 µM [falling, full curve].

Regarding `Cc1ccc(S(=O)(=O)/N=C2\C(=O)c3ccccc3C([O-])=C2n2cc[n+](CCC(C)C)c2)cc1`, the concentration at half-maximal activity (AC50) is 11.2 µM [falling, partial curve] under setting [1] and 12.6 µM [falling, partial curve] under setting [2].

Take `O=c1ccc2c(o1)/C(=C/C=C(Cl)Cl)CCC2`: the half-maximal activity concentration (AC50) under setting [2] is 15.8 µM [falling, partial curve, poor fit].

As for `CCOc1ccc(NC(=O)CCn2cnc3onc(-c4ccc(F)cc4)c3c2=O)cc1`, the AC50 by setting is: under setting [1], 35.5 µM [falling, single point]; under setting [2], 20 µM [falling, partial curve].

In the case of `COc1cc(OC)cc(C(=O)NC(=S)Nc2ccc(N3CCCC3)cc2)c1`, the half-maximal activity concentration (AC50) under setting [2] is 0.891 µM [rising, full curve, poor fit].

As to `COc1ccc(C2Nc3ccccc3C(=O)N2c2ccccc2)cc1Cn1cc([N+](=O)[O-])cn1` (stereo not given), the AC50 under setting [2] is 31.6 µM [falling, single point].

Regarding `COc1ccc2[nH]cc(CCNc3cc(-c4ccccc4C)ncn3)c2c1`, under setting [1], the half-maximal activity concentration (AC50) was 11.2 µM [falling, partial curve, poor fit].

On to `COc1ccccc1N1CCN(C(=O)c2cc3c(=O)n(Cc4ccco4)ccc3nc2C)CC1`, for which, under setting [2], the concentration at half-maximal activity (AC50) is 0.0794 µM [falling, partial curve, poor fit].

For `Cc1ccc(NS(=O)(=O)c2c(C(=O)N3CCC(C)CC3)c(C)n(C)c2C)cc1Cl`, the AC50 under setting [2] was 0.0794 µM [rising, full curve, poor fit].

Take `COCCNC(=S)N(Cc1cc2cc(C)ccc2n2nnnc12)C1CCCC1`: the AC50 is, setting by setting: under setting [1], 2.51 µM [falling, single point]; under setting [2], 0.126 µM [falling, single point].

Take `Cc1ccc(S(=O)(=O)NNC2CC(=O)N(c3ccc(Br)cc3)C2=O)cc1` (stereo not given): the AC50 under setting [1] is 0.2 µM [falling, full curve, poor fit].

Regarding `O=C1OCCN1C(=O)[C@H]1[C@H](c2ccc(F)cc2)C(c2ccc(F)cc2)=NN1c1ccccc1`, the AC50 under setting [2] was 10 µM [rising, partial curve].

Turning to `CCOC(=O)Cn1c(=O)c2c(nc(N3CCCCC3)n2C)n(C)c1=O`, under setting [2], the AC50 is 15.8 µM [rising, partial curve].

For `Cc1nc2ccc(NC(=O)c3cccc(S(=O)(=O)N(C)c4ccccc4)c3)cc2s1`, under setting [2], the AC50 was 12.6 µM [rising, partial curve].

With `Cc1ccc(N(CC(O)CN2CCOCC2)S(=O)(=O)c2ccc3ccccc3c2)cc1` (stereo not given), the AC50 under setting [1] is 3.16 µM [falling, partial curve] and the concentration at half-maximal activity (AC50) under setting [2] is 3.55 µM [falling, partial curve].

For the compound `CC1CCN(CCCNC(=O)c2cc(Sc3ccc(F)cc3)nc3ccccc23)CC1`, the AC50 under setting [1] was 0.002 µM [falling, full curve, poor fit] and the AC50 under setting [2] was 0.00398 µM [falling, full curve, poor fit].

With `COc1ccccc1N(C)S(=O)(=O)c1ccc(C(=O)OCC(=O)N(C(C)C)C(C)C)cc1`, under setting [1], the AC50 was 14.1 µM [rising, partial curve, poor fit].

For `CCc1ccc2c(c1)N(C[C@H](C)CN(C)C)c1ccccc1S2`, the concentration at half-maximal activity (AC50) under setting [1] was 35.5 µM [falling, single point].

As for `CCc1c(C)sc(NC(=O)C2CC2c2ccccc2)c1C(N)=O` (stereo not given), the AC50 is 7.08 µM [falling, partial curve] under setting [1] and 22.4 µM [falling, partial curve, poor fit] under setting [2].

Turning to `Nc1cccc(-c2cn3ccsc3n2)c1`, the AC50 is 1.41 µM [falling, full curve] under setting [1] and 0.891 µM [falling, full curve, poor fit] under setting [2].

For the compound `Cc1cc(Br)c(NC(=O)CN(C)CCOc2ccccc2)c(Br)c1`, the AC50 under setting [2] is 1.12 µM [rising, full curve, poor fit].

Consider `COc1cccc2c(=O)cc(C)n(CC(=O)Nc3cccc(C)c3)c12`, for which the AC50 under setting [2] is 10 µM [rising, partial curve].

On to `CC(=O)NC(C)C(=O)OCC(=O)c1ccc(-c2ccccc2)cc1` (stereo not given), for which, under setting [2], the concentration at half-maximal activity (AC50) is 17.8 µM [rising, partial curve].

Turning to `C=CCn1c(SCC(=O)c2cccs2)nc2sc(C)c(C)c2c1=O`, under setting [2], the AC50 was 35.5 µM [rising, single point].

For `CC(C)(C)n1nnnc1C(c1ccc(C(F)(F)F)cc1)N(Cc1ccc(F)cc1)Cc1ccco1` (stereo not given), the AC50 under setting [2] was 31.6 µM [rising, single point].

As for `COc1cc(OC)c(N(C)C(=O)Cn2ncc3c([nH]c4ccccc43)c2=O)cc1Cl`, the concentration at half-maximal activity (AC50) under setting [1] is 35.5 µM [falling, partial curve].

Turning to `CCOC(=O)C1(CCCCCCOc2ccc(Cl)cc2)CO1` (stereo not given), the AC50 runs as follows: under setting [1], 11.2 µM [falling, single point]; under setting [2], 8.91 µM [falling, partial curve, poor fit].

`Cc1onc(-c2c(F)cccc2Cl)c1C(=O)N[C@@H]1C(=O)N2[C@H]1SC(C)(C)[C@H]2C(=O)O`: the AC50 under setting [1] was 0.02 µM [falling, full curve].

Turning to `CC(=O)N(C)c1ccc(OCC(O)Cn2c3ccc(Cl)cc3c3cc(Cl)ccc32)cc1` (stereo not given), the AC50 by setting is: under setting [1], 2.82 µM [falling, single point]; under setting [2], 2.82 µM [falling, single point].

For the compound `CCC(C(=O)OCC(=O)Nc1cccc(C(C)=O)c1)c1ccccc1` (stereo not given), under setting [2], the AC50 was 12.6 µM [rising, partial curve, poor fit].

In the case of `COc1ccc(-n2nnc3c(SCC(=O)NCc4ccco4)ncnc32)cc1`, the AC50 under setting [2] is 14.1 µM [falling, single point].

For `Cc1n[nH]c(C)c1CCOc1ccc(C(C)C)cc1`, the AC50 by setting is: under setting [1], 0.631 µM [rising, full curve]; under setting [2], 11.2 µM [rising, partial curve].

`O=C(/C=C\c1ccccc1)Oc1cccc2cccnc12`: the AC50 under setting [2] was 31.6 µM [falling, single point].

As for `Nc1nc2ccc(OC(F)(F)F)cc2s1`, the concentration at half-maximal activity (AC50) by setting is: under setting [1], 891 nM [falling, partial curve] and 17.8 µM [rising, single point] and 7.08 µM [falling, full curve, poor fit]; under setting [2], 12.6 µM [falling, partial curve] [middle of 4 runs].
